{"source": "PubChem BioAssay AID504764 (Drosophila RNAi Screening Center, 2011)", "screen": "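Genome-wide screen for regulators of Notch-driven gene expression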 (primary screen)", "system": "Drosophila Kc167 cells", "reagents": "long dsRNA against Drosophila genes", "duration": "about 5 days (4 days dsRNA, then 24 h after transfection)", "conditions": "transfection of constitutively active membrane-tethered Notch lacking the extracellular domain, read 24 h later", "read-out": "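Light from a Notch-responsive E(spl)m3 luciferase reporter under active Notch, with control-promoter and no-Notch reporter wells to normalise; raw counts from paired wells a and b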", "reading the numbers": "induced reporter light, run 1, well a and induced reporter light, run 1, well b: higher = more light from the Notch target reporter with active Notch; control promoter light, run 1, well a and control promoter light, run 1, well b: higher = more light from the viral control promoter (cell number, transfection, viability); uninduced reporter light, run 1, well a: higher = more light from the Notch target reporter without active Notch", "active means": "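Hit if the duplicate-averaged log2 ratio of induced to control-promoter light gives a plate-wise z beyond ±2, or induced to uninduced beyond ±1.8; weak-control or discordant-duplicate wells dropped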", "meaning of the calls": "active = modifier hit (raised or lowered Notch signal); inactive = not a hit", "note": "The deposit covers about 22,000 reagents; this is an unselected part of those with a known target gene and a result. In the full data, 403 (1.9%) got an active call. 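Unnormalised raw counts per well; ratio z-scores behind the hit calls and whether each hit raises or lowers signal are not deposited.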 Unmarked entries are inactive. Reagent sequences are not shown. Not given: the amount of reagent."}
{"predicted target": "CG42365", "DRSC id": "DRSC04266", "induced reporter light, run 1, well a": 51020, "induced reporter light, run 1, well b": 41790, "control promoter light, run 1, well a": 45955, "control promoter light, run 1, well b": 37155, "uninduced reporter light, run 1, well a": 3238}
{"predicted target": "CG10927", "DRSC id": "DRSC06014", "induced reporter light, run 1, well a": 79855, "induced reporter light, run 1, well b": 1.08e5, "control promoter light, run 1, well a": 1.59e5, "control promoter light, run 1, well b": 1.67e5, "uninduced reporter light, run 1, well a": 6850}
{"predicted target": "CG7772", "DRSC id": "DRSC20056", "induced reporter light, run 1, well a": 1.33e5, "induced reporter light, run 1, well b": 1.13e5, "control promoter light, run 1, well a": 1.29e5, "control promoter light, run 1, well b": 64895, "uninduced reporter light, run 1, well a": 9088}
{"predicted target": "NimA", "DRSC id": "DRSC01353", "induced reporter light, run 1, well a": 63185, "induced reporter light, run 1, well b": 85650, "control promoter light, run 1, well a": 1.00e5, "control promoter light, run 1, well b": 1.10e5, "uninduced reporter light, run 1, well a": 8420}
{"predicted target": "S-Lap3", "DRSC id": "DRSC10956", "induced reporter light, run 1, well a": 98185, "induced reporter light, run 1, well b": 73520, "control promoter light, run 1, well a": 74600, "control promoter light, run 1, well b": 22325, "uninduced reporter light, run 1, well a": 9665}
{"predicted target": "Nle", "DRSC id": "DRSC00763", "induced reporter light, run 1, well a": 1.20e5, "induced reporter light, run 1, well b": 1.12e5, "control promoter light, run 1, well a": 1.07e5, "control promoter light, run 1, well b": 83130, "uninduced reporter light, run 1, well a": 9695}
{"predicted target": "SA2", "DRSC id": "DRSC08385", "induced reporter light, run 1, well a": 1.65e5, "induced reporter light, run 1, well b": 1.05e5, "control promoter light, run 1, well a": 1.71e5, "control promoter light, run 1, well b": 2.26e5, "uninduced reporter light, run 1, well a": 6910}
{"predicted target": "TFAM", "DRSC id": "DRSC15552", "induced reporter light, run 1, well a": 1.34e5, "induced reporter light, run 1, well b": 1.56e5, "control promoter light, run 1, well a": 1.68e5, "control promoter light, run 1, well b": 1.56e5, "uninduced reporter light, run 1, well a": 14505}
{"predicted target": "CG14454", "DRSC id": "DRSC11711", "induced reporter light, run 1, well a": 1.15e5, "induced reporter light, run 1, well b": 78605, "control promoter light, run 1, well a": 1.01e5, "control promoter light, run 1, well b": 1.17e5, "uninduced reporter light, run 1, well a": 6400}
{"predicted target": "S", "DRSC id": "DRSC00785", "induced reporter light, run 1, well a": 47390, "induced reporter light, run 1, well b": 42455, "control promoter light, run 1, well a": 19850, "control promoter light, run 1, well b": 12090, "uninduced reporter light, run 1, well a": 7880}
{"predicted target": "Hex-C", "DRSC id": "DRSC07079", "induced reporter light, run 1, well a": 80135, "induced reporter light, run 1, well b": 73635, "control promoter light, run 1, well a": 1.06e5, "control promoter light, run 1, well b": 98080, "uninduced reporter light, run 1, well a": 6535}
{"predicted target": "CG17186", "DRSC id": "DRSC15180", "induced reporter light, run 1, well a": 2.52e5, "induced reporter light, run 1, well b": 1.82e5, "control promoter light, run 1, well a": 1.86e5, "control promoter light, run 1, well b": 2.04e5, "uninduced reporter light, run 1, well a": 15635}

2 entries from above, limited to “induced reporter light, run 1, well a”:
S-Lap3 [DRSC10956] = 98185
Nle [DRSC00763] = 1.20e5
